Data as given in patent publication US20230087125A1 (Memorial Sloan Kettering, published 2023).
Results are given in words; binding and its absence hold for the method and conditions named. Some binding calls cover weakened binding; strength is not graded here.

Chains of the proteins cited; added tags and fusions are not shown. Lines headed by an entry give the natural chain unless they say otherwise; changes in a name come on top.
UniProt P16871: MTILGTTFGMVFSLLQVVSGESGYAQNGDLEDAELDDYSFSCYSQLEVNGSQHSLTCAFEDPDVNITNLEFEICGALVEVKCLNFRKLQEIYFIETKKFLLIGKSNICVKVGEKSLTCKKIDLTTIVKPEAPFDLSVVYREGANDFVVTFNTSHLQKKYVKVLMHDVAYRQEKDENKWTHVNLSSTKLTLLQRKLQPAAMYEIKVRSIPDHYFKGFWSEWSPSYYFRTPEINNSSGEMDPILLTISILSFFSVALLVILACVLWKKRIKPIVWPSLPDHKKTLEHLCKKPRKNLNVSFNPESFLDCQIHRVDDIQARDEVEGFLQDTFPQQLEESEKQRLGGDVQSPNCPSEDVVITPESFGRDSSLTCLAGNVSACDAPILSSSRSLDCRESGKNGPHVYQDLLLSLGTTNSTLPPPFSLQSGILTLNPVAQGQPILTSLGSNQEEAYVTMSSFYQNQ

Experiments:
[1] = biological target: human IL-7R (CD127) on cells (human) (UniProt P16871); assay: flow cytometry on H358 cells and IL-7R overexpressing A549 cells
[2] = biological target: human IL-7R (CD127) on cells (human) (UniProt P16871); assay: flow cytometry on H358 cells and A549-7R cells
[3] = biological target: human IL-7R (CD127) on cells (human) (UniProt P16871); assay: flow cytometry on IL-7R expressing cells

Measured: binding

B1: OSE703 humanized anti-IL-7R monoclonal antibody (antibody, IgG1, V domains shown)
VH: AVQLVESGGGLVQPGGSLKITCAASGFTFTNAAMYWVRQAPGKGLEWVARIRTKANNYATYYADSVKGRFTISRDDSKSTVYLQMDSVKTEDTATYYCIVVVLTTTRDYFDYWGQGVLVTVSS
VL: DIVLTQSPSSLPVTPGEPASISCRSSQSLLTVKGITSLYWFLQKPGQSPKLLIYRMSNRDSGVPDRFSGSGSETDFTLKISRVEAEDVGTYYCAQFLEYPHTFGAGTKLELK
binds: all assays above
